Laboratory results: PubChem BioAssay AID330 (DTP/NCI, 2004)
The list shows only some results of the screen, not a fair sample: it gathers tests that were run many times, whatever their T/C, doses with no T/C, and many T/C values between a quarter and a half above the control. Other doses and runs of a compound stand elsewhere. T/C is the treated group as % of the vehicle group. Some entries give survivors of the animals treated and no T/C: the source holds a T/C of zero for them, seemingly a mark for toxic or unscored doses. Some survivor counts are full or nearly so, which does not show that the dose was tolerated: survival well below the control is almost never listed, so the zero probably covers shortened survival too. Counts of survivors are from the toxicity check (mostly the fifth day) where no day follows; animals may have died later. Schedules are NCI's codes, read here as Q, the interval in days (D) or hours (H), X, the number of doses. Some entries were tested several times; the values are given in rising order. Where survival is the endpoint, the PubChem record calls one and a half times the control and up active, and a quarter to a half above the control has no call in these data; cut-offs in other NCI protocols can differ. Some T/C values are followed by the survivors on the day toxicity was checked, most often the fifth; where none is given, no animal had died by that day.

Tested on: P388 leukemia ip, CD2F1 mice, survival T/C
Assay: NCI In Vivo Anticancer Drug Screen. Data for tumor model P388 Leukemia (intraperitoneal) in CD2F1 (CDF1) mice
Details: T/C endpoint: median survival time, higher T/C = longer survival
[1] = dose: 400.0 mg/kg/injection, schedule: Q01DX009 (ip), vehicle: Klucel (hydroxypropylcellulose) (HPC)
[2] = dose: 200.0 mg/kg/injection, schedule: Q01DX009 (ip), vehicle: saline with Tween-80
[3] = dose: 200.0 mg/kg/injection, schedule: Q01DX009 (ip), vehicle: saline
[4] = dose: 200.0 mg/kg/injection, schedule: Q01DX005 (ip), vehicle: Klucel (hydroxypropylcellulose) (HPC)
[5] = dose: 240.0 mg/kg/injection, schedule: Q01DX005 (ip), vehicle: saline with Tween-80
[6] = dose: 50.0 mg/kg/injection, schedule: Q01DX009 (ip), vehicle: Klucel (hydroxypropylcellulose) (HPC)
[7] = dose: 60.0 mg/kg/injection, schedule: Q01DX005 (ip), vehicle: saline with Tween-80

SMILES: OC(C1CO1)C(O)C1CO1 (centres undefined)
- T/C (dose: 0.5 mg/kg/injection, schedule: Q01DX009 (ip), vehicle: saline): 138 [5 of 6 alive] and 139 % of control
- T/C (dose: 1.0 mg/kg/injection, schedule: Q01DX005 (ip), vehicle: saline): 130 and 138 % of control
- T/C (dose: 1.3 mg/kg/injection, schedule: Q01DX005 (ip), vehicle: saline): 136 % of control
- T/C (dose: 2.0 mg/kg/injection, schedule: Q01DX005 (ip), vehicle: saline, evaluated on day 30): 154 and 157 % of control
- T/C (dose: 2.0 mg/kg/injection, schedule: Q01DX005 (ip), vehicle: saline, evaluated on day 45): 156 and 172 % of control
- T/C (dose: 3.0 mg/kg/injection, schedule: Q01DX009 (ip), vehicle: saline): 127 % of control
- survivor count (dose: 4.0 mg/kg/injection, schedule: Q01DX009 (ip), vehicle: saline): 5 of 6
- survivor count (dose: 4.0 mg/kg/injection, schedule: Q01DX009 (ip), vehicle: water): 6 of 6
- survivor count (dose: 6.0 mg/kg/injection, schedule: Q01DX009 (ip), vehicle: saline): 6 of 6
- survivor count (dose: 6.7 mg/kg/injection, schedule: Q01DX005 (ip), vehicle: saline): 6 of 6
- survivor count (dose: 8.0 mg/kg/injection, schedule: Q01DX005 (ip), vehicle: saline): 8 of 8
- survivor count (dose: 8.0 mg/kg/injection, schedule: Q01DX009 (ip), vehicle: saline): 6 of 6
- survivor count (dose: 8.0 mg/kg/injection, schedule: Q01DX009 (ip), vehicle: water): 6 of 6
- T/C (dose: 10.0 mg/kg/injection, schedule: Q01DX001 (ip), vehicle: saline): 193, 199, 200, 206 % of control
- T/C (dose: 12.5 mg/kg/injection, schedule: Q01DX001 (ip), vehicle: saline): 213, 240 [8 of 10 alive], 252, 256 % of control
- T/C (dose: 12.5 mg/kg/injection, schedule: Q04DX003 (ip), vehicle: saline): 128 % of control
- T/C (dose: 15.0 mg/kg/injection, schedule: Q01DX001 (ip), vehicle: saline): 207, 221 [8 of 10 alive], 229, 284 % of control
- survivor count (dose: 16.0 mg/kg/injection, schedule: Q01DX009 (ip), vehicle: saline with Tween-80): 6 of 6

SMILES: O=C(/C(=N/Nc1ccccc1)C(=S)Nc1ccccc1)c1ccccc1
- survivor count (dose: 100.0 mg/kg/injection, schedule: Q01DX005 (ip), vehicle: saline with Tween-80): 6 of 6

SMILES: N#CCCSC(=S)N1CCCCC1
- survivor count [1]: 1 of 6

SMILES: ClC(Cl)=C(Cl)C(Cl)=C(Cl)Cl
- survivor count (dose: 200.0 mg/kg/injection, schedule: Q01DX001 (ip), vehicle: saline): 3 of 6

SMILES: CCOC(=O)c1ccc(NN=NC)cc1
- T/C (dose: 25.0 mg/kg/injection, schedule: Q01DX009 (ip), vehicle: saline with Tween-80): 131 and 133 % of control
- survivor count [2]: 6 of 6

SMILES: O=C1Nc2ccccc2/C1=N/n1c(-c2ccccc2)nc2ccccc2c1=O
- survivor count (dose: 50.0 mg/kg/injection, schedule: Q01DX005 (ip), vehicle: Klucel (hydroxypropylcellulose) (HPC)): 5 of 6

SMILES: N#C/C(=C\C(Cl)=C/c1ccccc1)C(N)=S
- survivor count [3]: 6 of 6

SMILES: CCCCNC(=O)OCCN(C)CCOC(=O)NCCCC
- survivor count (dose: 240.0 mg/kg/injection, schedule: Q01DX005 (ip), vehicle: saline): 0 of 6

SMILES: O=C1Nc2ccccc2C(=O)C1=Ic1ccccc1
- survivor count (dose: 120.0 mg/kg/injection, schedule: Q01DX005 (ip), vehicle: Klucel (hydroxypropylcellulose) (HPC)): 2 of 6
- survivor count [4]: 6 of 6
- survivor count (dose: 240.0 mg/kg/injection, schedule: Q01DX005 (ip), vehicle: Klucel (hydroxypropylcellulose) (HPC)): 0 of 6

SMILES: CCNC(=O)OCc1c(C)nc2n1CCS2
- survivor count [4]: 1 of 6

SMILES: O=S(=O)(Cl)C(F)(F)C(F)(F)C(F)(F)C(F)(F)C(F)(F)C(F)(F)F
- survivor count [2]: 6 of 6

SMILES: CC(=O)Oc1ccc(OC(C)=O)c(CBr)c1CBr
- survivor count (dose: 200.0 mg/kg/injection, schedule: Q04DX002 (ip), vehicle: Klucel (hydroxypropylcellulose) (HPC)): 6 of 6
- survivor count (dose: 400.0 mg/kg/injection, schedule: Q04DX002 (ip), vehicle: Klucel (hydroxypropylcellulose) (HPC)): 5 of 6

SMILES: C[N+](C)=c1ccc2nc3ccc(N)cc3sc-2c1
- survivor count (dose: 3.13 mg/kg/injection, schedule: Q01DX009 (ip), vehicle: saline with Tween-80): 6 of 6
- survivor count (dose: 100.0 mg/kg/injection, schedule: Q01DX009 (ip), vehicle: saline): 1 of 6
- survivor count [3]: 0 of 6

SMILES: Cl/N=C(\Nc1ccccc1)c1ccccn1
- survivor count [2]: 3 of 6

SMILES: COc1ccc2c(c1)CCC(c1nc3ccc(C)cc3[nH]c1=O)C2=O (centres undefined)
- survivor count [5]: 2 of 6

SMILES: O=[n+]1c2c(n([O-])c3cc(Cl)c(Cl)cc31)CCCC2
- survivor count (dose: 100.0 mg/kg/injection, schedule: Q01DX009 (ip), vehicle: saline with Tween-80): 4 of 6
- survivor count [2]: 0 of 6

SMILES: C/C=C/C1=C(Cl)C(=O)[C@@H](Cl)[C@@]1(O)C(=O)OC
- T/C (dose: 2.5 mg/kg/injection, schedule: Q01DX009 (ip), vehicle: saline with Tween-80): 149 % of control
- T/C (dose: 5.0 mg/kg/injection, schedule: Q01DX009 (ip), vehicle: saline with Tween-80): 136 % of control
- T/C (dose: 10.0 mg/kg/injection, schedule: Q01DX009 (ip), vehicle: saline with Tween-80): 129 % of control
- survivor count (dose: 20.0 mg/kg/injection, schedule: Q01DX009 (ip), vehicle: saline with Tween-80): 2 of 3

SMILES: CC1CCC[P+](c2ccccc2)(c2ccccc2)CC1 (centres undefined)
- survivor count (dose: 100.0 mg/kg/injection, schedule: Q04DX002 (ip), vehicle: saline): 0 of 6
- survivor count (dose: 200.0 mg/kg/injection, schedule: Q04DX002 (ip), vehicle: saline): 0 of 6
- survivor count (dose: 400.0 mg/kg/injection, schedule: Q04DX002 (ip), vehicle: saline): 0 of 6

SMILES: Cc1cc(Oc2ccc(Cl)cc2NC(=O)Nc2cccc(C(F)(F)F)c2)cc(S(=O)(=O)O)c1Cl
- survivor count (dose: 200.0 mg/kg/injection, schedule: Q01DX001 (ip), vehicle: saline with Tween-80): 1 of 6
- survivor count (dose: 400.0 mg/kg/injection, schedule: Q01DX001 (ip), vehicle: saline with Tween-80): 0 of 6

SMILES: CC(=O)NCCSSCCCCS(=O)O
- T/C (dose: 200.0 mg/kg/injection, schedule: Q01DX005 (ip), vehicle: saline): 125 % of control
- T/C (dose: 400.0 mg/kg/injection, schedule: Q01DX005 (ip), vehicle: saline): 137 % of control

SMILES: COC(=O)Nc1cn2cc(C(=O)c3cccs3)ccc2n1
- T/C [6]: 126 % of control
- T/C (dose: 100.0 mg/kg/injection, schedule: Q01DX009 (ip), vehicle: Klucel (hydroxypropylcellulose) (HPC)): 133 and 147 % of control [5 of 6 alive]
- T/C (dose: 200.0 mg/kg/injection, schedule: Q01DX009 (ip), vehicle: Klucel (hydroxypropylcellulose) (HPC)): 132 % of control
- survivor count [1]: 0 of 6

SMILES: NC(CCl)=NCC1C2CC3CC(C2)CC1C3 (centres undefined)
- T/C (dose: 15.0 mg/kg/injection, schedule: Q01DX005 (ip), vehicle: saline with Tween-80): 127 and 131 % of control
- T/C (dose: 30.0 mg/kg/injection, schedule: Q01DX005 (ip), vehicle: saline with Tween-80): 126 and 135 % of control
- survivor count [7]: 1 of 6 and 5 of 6
- survivor count (dose: 120.0 mg/kg/injection, schedule: Q01DX005 (ip), vehicle: saline with Tween-80): 0 of 6
- survivor count [5]: 0 of 6

SMILES: CC(C)NC(=O)OCc1c(COC(=O)NC(C)C)c2cccn2c2c1cnn2-c1ccccc1
- survivor count [7]: 6 of 6

SMILES: Cc1nc2c([N+](=O)[O-])c(N3CCCCC3)c([N+](=O)[O-])cc2[nH]1
- survivor count (dose: 400.0 mg/kg/injection, schedule: Q04DX002 (ip), vehicle: saline with Tween-80): 1 of 6

SMILES: Cc1c(CCl)cc([N+](=O)[O-])cc1CCl
- T/C [6]: 135 % of control

SMILES: CCOC(=O)C1=C(C(=O)c2ccc(C)cc2)C(c2c(Cl)cccc2Cl)C(C(=O)c2ccc(C)cc2)=C(C(=O)OCC)N1
- survivor count [7]: 6 of 6
